From PubChem BioAssay record AID1159506 (NCATS, 2015).

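Luminescence from an EWS-FLI1 target-promoter (NR0B1) reporter, set against a CMV-promoter reporter, two days after silencing single genes in TC32 Ewing sarcoma cells.
Each siRNA was applied at 20 nM.
A z-score of the log NR0B1-over-CMV signal, less the median of siRNAs with the same seed; more negative means a stronger specific loss of the NR0B1 reporter.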

The strongest results of the screen are mostly left out here.
Sequences are the guide (antisense) strand, without overhang.

| # | siRNA | gene | seed-corrected z-score |
|---|---|---|---|
| 1 | `UGAUCGAUACGGACAGAGC` | DROSHA | -0.4379 |
| 2 | `UUUGCGAUAACAAGCUCCG` | CDK2 | -0.3424 |
| 3 | `UGAAUGACAGCACUUAGCC` | HACE1 | 0.8105 |
| 4 | `UUCCGUGUCGGGAUCAUUC` | ANKS6 | 0.08273 |
| 5 | `UUUGUUGCUACCGAUCACC` | PARP1 | -0.4035 |
| 6 | `UUUCCAACGAGACAGACUC` | TRMT44 | -0.234 |
| 7 | `UUGUCUAUUAAGAAGCUGG` | SERPINA7 | -1.003 |
| 8 | `UUGGACAUCAACAUCGUUU` | ATP6V1E1 | 0.1885 |
| 9 | `AACCAUUCCAGCAUUGCCC` | JRKL | 0.51 |
| 10 | `UUUUCGGUAGAGACCAUAG` | HDAC1 | 1.003 |
| 11 | `UCACGUAAGGCAAUCAACC` | SMC5 | -1.513 |
| 12 | `UCGAUUUUCGCUUCCGUCC` | KAT5 | -1.502 |
| 13 | `UUUGUUGUACUCGCCGACG` | CST3 | -0.4987 |
| 14 | `UCAGAAAACACCUCGGGUC` | C1RL | -0.3121 |
| 15 | `UUAAUGGAACUUCUAAGCC` | TYW3 | 0.4503 |
| 16 | `UGUAGAAUUACAUAGUAGG` | CASC1 | 0.1282 |
| 17 | `UGUGGUUCUUCACCCAAGC` | SLC22A13 | -0.5237 |
| 18 | `AUUGUUAGCUGUUAAUUCC` | MBTPS1 | 1.407 |
| 19 | `UUCGUAUCCAAGUCAAUGC` | DENND4C | 1.073 |
| 20 | `ACUUCUCCCAACAAAGUUC` | TIMM8A | 0.3313 |
| 21 | `UCCAUGUCAUCGAUGAACU` | COL6A2 | -0.8604 |
| 22 | `AGUCAAUGAAGUUAUCCUC` | MEIS1-AS3 | -0.01562 |
| 23 | `UUGUUGAUCUCCUGUAUGC` | ADCY8 | 0.01463 |
| 24 | `UAUUAUACCAUGAACUCUC` | PM20D2 | -0.675 |
| 25 | `UGCAGUUCUCCAACGUCCC` | MT1M | 0.8879 |
| 26 | `UUCAUGUCGAUGCCGUUGG` | KCNH2 | -1.343 |
| 27 | `AAAUCCGCAGCUAUCGUCG` | NARF | -0.178 |
| 28 | `UAUGGAGUUGAAGGUAGUU` | POTEKP | -1.632 |
| 29 | `UCCGUUAACAGGAACUCAG` | NOSTRIN | 0.612 |
| 30 | `AGAAUAGUAAGAAGUCUGC` | PMFBP1 | 1.394 |
| 31 | `AGCAUUUUCAUUGUAGUCU` | HMGN5 | 0.28 |
| 32 | `AAAUUUCAUGGAAUCUUUG` | ARL6IP1 | -1.322 |
| 33 | `UACUAUACGUUUAAGGUCG` | CFI | -1.079 |
| 34 | `UACCGGUCCAUGACGGUCA` | THRSP | 0.437 |
| 35 | `UAUGGAAGACACGAUCACC` | DHRS4 | -0.639 |
| 36 | `UACGGUCUAUAAAAUUCUC` | HS3ST2 | -0.1246 |
| 37 | `UUAGGUACUUCUCGCUUGG` | APC | 0.3238 |
| 38 | `UUCCCAAUUAACUCAGUUC` | SELL | -0.4386 |
| 39 | `UCUCGUAUAGGGUAGCAUC` | TTC33 | 1.036 |
| 40 | `UACUAUUAUGGUUGAGGGC` | FAM83C | 0.2536 |
| 41 | `UUUGCUAGCACAUCCACAC` | UTP15 | -0.9514 |

The first 3 entries again:

siRNA,gene,seed-corrected z-score
UGAUCGAUACGGACAGAGC,DROSHA,-0.4379
UUUGCGAUAACAAGCUCCG,CDK2,-0.3424
UGAAUGACAGCACUUAGCC,HACE1,0.8105